In the supplement of paper PMC6411743:
± gives the standard deviation of the averaged measurements. The list shows a part of the results, in another mix than the full data.

Protein sequences, listed by entry. Tags and fused reporters are not part of them. Lines headed by an entry give the natural chain unless they say otherwise; changes in a name come on top.
UniProt P55735: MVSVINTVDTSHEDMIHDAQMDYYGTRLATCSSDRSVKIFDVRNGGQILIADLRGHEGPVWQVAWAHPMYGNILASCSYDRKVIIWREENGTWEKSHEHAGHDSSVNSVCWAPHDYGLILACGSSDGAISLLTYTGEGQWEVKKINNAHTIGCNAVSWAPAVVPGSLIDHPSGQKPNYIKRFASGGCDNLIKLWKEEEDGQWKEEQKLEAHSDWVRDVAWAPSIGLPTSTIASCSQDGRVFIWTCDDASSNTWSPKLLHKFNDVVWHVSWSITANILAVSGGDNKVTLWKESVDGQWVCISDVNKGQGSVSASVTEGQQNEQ
UniProt P78536: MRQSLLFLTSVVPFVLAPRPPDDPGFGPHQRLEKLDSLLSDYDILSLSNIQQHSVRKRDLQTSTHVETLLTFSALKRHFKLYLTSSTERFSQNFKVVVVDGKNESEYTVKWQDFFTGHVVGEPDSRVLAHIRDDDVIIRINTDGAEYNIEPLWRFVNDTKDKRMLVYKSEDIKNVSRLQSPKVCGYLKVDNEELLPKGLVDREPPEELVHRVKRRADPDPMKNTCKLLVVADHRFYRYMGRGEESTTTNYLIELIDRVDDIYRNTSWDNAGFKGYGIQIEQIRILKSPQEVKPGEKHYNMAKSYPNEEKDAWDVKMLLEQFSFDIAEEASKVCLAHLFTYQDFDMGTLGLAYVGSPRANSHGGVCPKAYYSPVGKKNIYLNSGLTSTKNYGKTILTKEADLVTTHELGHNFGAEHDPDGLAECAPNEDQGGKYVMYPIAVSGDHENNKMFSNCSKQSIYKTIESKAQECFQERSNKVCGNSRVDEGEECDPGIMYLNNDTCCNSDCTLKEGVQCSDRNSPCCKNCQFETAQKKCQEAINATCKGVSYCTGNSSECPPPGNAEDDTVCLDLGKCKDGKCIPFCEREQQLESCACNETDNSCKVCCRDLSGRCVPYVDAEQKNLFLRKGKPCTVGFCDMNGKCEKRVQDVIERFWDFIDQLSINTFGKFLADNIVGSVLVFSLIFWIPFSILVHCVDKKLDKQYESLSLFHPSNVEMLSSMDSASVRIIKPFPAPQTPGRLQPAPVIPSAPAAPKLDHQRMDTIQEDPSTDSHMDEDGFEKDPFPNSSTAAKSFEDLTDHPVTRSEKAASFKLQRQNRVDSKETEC
UniProt P53350, whole entry: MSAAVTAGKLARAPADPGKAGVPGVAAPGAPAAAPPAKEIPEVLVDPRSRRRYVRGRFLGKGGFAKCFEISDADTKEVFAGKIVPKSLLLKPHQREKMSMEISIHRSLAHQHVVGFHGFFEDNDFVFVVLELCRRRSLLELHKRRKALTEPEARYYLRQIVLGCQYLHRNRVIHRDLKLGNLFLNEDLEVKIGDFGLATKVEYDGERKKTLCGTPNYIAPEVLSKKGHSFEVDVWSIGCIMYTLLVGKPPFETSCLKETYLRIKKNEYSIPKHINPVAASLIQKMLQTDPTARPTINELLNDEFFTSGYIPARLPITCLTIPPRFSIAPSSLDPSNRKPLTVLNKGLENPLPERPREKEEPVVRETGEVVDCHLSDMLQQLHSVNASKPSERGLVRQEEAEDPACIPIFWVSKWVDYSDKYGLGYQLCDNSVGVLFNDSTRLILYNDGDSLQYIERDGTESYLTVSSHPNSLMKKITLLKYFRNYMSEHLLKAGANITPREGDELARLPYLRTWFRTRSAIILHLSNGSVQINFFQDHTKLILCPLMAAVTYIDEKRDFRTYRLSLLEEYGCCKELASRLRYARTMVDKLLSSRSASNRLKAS
UniProt P67809, whole entry: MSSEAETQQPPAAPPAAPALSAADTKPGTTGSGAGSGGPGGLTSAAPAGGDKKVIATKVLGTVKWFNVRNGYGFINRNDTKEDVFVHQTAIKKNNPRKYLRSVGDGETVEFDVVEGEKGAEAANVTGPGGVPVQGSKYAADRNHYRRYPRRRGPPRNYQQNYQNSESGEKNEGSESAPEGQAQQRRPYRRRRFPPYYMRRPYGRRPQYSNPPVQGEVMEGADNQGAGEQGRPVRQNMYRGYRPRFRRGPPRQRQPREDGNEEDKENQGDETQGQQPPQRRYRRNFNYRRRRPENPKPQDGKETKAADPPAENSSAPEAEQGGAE
UniProt P78318: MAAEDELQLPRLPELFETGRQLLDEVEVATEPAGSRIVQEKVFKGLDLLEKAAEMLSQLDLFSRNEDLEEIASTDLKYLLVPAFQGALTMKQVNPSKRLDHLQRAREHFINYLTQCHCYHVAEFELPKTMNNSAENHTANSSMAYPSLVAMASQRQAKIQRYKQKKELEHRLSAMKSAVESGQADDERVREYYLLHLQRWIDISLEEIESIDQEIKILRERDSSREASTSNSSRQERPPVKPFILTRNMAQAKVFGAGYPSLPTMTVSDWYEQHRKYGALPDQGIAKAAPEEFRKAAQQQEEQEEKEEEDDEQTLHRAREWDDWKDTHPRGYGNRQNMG
UniProt P86790: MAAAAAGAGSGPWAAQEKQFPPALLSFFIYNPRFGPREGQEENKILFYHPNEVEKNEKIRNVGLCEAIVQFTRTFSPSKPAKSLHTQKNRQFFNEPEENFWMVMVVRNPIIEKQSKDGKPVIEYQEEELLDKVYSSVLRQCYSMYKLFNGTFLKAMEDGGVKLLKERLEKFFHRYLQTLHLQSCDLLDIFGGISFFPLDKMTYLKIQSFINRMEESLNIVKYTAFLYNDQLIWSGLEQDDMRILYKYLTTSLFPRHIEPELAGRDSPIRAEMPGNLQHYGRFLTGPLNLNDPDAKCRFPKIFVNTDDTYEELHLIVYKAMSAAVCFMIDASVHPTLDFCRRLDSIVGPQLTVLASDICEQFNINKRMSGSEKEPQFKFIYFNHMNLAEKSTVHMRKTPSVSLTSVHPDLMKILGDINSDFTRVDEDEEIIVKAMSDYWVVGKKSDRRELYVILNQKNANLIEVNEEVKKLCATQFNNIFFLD
UniProt P86791: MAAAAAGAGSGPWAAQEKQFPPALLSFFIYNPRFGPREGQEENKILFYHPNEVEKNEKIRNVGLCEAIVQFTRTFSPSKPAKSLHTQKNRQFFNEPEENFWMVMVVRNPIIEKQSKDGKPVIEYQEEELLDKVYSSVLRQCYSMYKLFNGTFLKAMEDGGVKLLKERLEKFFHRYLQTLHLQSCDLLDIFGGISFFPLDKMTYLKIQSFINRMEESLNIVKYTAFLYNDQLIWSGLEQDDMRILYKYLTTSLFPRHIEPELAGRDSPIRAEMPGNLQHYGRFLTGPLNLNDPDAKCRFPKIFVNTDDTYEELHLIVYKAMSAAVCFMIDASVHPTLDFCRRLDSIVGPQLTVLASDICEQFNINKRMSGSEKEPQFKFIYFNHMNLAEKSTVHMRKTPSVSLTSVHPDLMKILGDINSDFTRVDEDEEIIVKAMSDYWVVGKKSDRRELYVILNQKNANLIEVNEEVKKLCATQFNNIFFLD
UniProt P61599, whole entry: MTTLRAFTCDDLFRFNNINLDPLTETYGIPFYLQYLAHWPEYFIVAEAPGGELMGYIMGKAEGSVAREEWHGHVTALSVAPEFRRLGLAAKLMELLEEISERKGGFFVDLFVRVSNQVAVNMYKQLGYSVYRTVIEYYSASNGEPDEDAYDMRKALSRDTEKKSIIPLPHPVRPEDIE
UniProt P53634: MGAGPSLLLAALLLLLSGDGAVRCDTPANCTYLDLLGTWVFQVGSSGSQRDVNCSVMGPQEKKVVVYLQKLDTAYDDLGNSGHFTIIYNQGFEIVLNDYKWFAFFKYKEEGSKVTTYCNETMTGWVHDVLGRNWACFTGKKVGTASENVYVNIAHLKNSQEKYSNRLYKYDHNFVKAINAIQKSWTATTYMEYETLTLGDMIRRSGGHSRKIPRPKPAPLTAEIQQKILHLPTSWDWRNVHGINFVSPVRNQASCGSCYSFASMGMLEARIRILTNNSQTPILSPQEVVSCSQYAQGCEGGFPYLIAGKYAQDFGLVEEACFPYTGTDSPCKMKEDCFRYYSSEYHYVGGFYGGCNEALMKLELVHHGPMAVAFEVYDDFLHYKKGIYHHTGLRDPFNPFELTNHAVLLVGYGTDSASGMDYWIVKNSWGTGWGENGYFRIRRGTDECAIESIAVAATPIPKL
UniProt P61968: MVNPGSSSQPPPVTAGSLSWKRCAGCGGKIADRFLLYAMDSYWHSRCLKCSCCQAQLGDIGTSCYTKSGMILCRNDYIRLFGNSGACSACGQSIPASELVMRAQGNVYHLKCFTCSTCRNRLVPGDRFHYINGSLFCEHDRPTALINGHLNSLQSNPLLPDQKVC
UniProt P84090, whole entry, looked up: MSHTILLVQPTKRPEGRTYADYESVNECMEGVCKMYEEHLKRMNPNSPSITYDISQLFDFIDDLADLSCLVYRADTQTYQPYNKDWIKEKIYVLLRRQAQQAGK
UniProt P62318, whole entry: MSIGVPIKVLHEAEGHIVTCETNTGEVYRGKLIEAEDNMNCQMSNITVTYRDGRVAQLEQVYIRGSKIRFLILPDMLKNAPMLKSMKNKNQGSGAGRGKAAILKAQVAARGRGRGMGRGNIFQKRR
UniProt P60033: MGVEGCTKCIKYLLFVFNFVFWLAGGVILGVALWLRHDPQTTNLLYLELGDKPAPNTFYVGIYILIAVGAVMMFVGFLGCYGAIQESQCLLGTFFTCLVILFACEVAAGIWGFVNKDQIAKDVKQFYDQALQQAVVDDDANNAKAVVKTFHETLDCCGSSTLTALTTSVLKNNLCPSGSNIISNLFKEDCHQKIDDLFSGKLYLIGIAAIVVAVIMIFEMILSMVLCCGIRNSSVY
UniProt P78332: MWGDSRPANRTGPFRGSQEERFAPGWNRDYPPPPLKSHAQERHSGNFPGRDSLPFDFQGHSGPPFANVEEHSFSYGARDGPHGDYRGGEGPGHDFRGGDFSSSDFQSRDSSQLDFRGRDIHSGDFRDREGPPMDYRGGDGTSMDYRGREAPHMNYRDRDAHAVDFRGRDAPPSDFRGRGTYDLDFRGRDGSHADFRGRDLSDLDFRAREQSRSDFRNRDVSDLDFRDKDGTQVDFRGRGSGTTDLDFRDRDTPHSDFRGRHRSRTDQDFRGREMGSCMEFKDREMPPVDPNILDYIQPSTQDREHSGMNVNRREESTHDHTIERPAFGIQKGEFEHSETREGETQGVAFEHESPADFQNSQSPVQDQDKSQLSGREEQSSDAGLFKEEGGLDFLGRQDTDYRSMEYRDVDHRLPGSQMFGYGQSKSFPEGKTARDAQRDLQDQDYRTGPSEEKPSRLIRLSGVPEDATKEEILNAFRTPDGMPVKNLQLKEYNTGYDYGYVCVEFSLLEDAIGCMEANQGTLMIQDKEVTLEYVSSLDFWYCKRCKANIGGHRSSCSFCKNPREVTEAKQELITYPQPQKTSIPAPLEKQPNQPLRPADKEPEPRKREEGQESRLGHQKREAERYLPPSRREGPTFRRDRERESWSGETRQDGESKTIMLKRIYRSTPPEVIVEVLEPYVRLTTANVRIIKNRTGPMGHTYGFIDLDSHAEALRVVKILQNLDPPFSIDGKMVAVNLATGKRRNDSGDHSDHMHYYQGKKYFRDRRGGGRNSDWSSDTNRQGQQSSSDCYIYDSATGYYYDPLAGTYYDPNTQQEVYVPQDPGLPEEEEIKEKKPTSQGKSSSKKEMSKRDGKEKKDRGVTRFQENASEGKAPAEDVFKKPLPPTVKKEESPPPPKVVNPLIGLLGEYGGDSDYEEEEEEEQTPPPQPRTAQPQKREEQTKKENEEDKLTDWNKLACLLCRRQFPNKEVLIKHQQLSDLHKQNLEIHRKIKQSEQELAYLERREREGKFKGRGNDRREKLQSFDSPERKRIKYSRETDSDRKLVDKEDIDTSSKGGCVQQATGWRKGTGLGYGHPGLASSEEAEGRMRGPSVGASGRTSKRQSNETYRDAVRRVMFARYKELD
UniProt P55771: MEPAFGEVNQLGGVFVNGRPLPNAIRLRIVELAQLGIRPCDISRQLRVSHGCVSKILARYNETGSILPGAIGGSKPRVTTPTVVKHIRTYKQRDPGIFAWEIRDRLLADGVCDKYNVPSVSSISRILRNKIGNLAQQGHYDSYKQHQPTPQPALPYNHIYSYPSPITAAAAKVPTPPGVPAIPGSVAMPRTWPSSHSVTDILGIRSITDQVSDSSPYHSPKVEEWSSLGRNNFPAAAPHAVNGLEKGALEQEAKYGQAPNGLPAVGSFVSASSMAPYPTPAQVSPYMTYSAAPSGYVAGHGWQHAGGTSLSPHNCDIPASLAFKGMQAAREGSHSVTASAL
UniProt P53990, whole entry: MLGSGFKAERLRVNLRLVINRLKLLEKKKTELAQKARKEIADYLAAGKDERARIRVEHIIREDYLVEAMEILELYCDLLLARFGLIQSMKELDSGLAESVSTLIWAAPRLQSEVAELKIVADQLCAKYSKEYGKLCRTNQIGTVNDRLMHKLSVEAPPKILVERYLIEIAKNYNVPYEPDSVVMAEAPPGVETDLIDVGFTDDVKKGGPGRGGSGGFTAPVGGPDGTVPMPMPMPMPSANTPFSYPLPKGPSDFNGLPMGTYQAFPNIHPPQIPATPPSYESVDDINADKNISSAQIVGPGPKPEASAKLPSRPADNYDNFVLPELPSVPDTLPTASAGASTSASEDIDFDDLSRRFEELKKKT
UniProt P61604, whole entry: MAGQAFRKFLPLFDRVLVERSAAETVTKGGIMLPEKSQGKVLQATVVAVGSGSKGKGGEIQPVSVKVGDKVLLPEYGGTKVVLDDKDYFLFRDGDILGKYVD

Compound: Nc1ncnc2c1ncn2[C@@H]1O[C@H](COP(=O)(O)OP(=O)(O)OP(=O)(O)O)[C@@H](O)[C@H]1O [adenosine triphosphate]
Test: NP40-soluble protein abundance relative to vehicle (solubility fold change) (ratio); higher = more soluble protein in presence of ATP
In short: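 Eight concentrations, 0.1 to 10 mM, were tested on Jurkat crude lysate for 10 min at room temperature and then 3 min at 37 °C, in three independent experiments. The lysate was solubilised with 0.8% NP40 and benzonase, ultracentrifuged, and the supernatant TMT-labelled for LC-MS/MS. Each value is the fold change against the detergent-processed vehicle in its own replicate, from vsn-normalised intensities.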

Target	NP40-soluble protein abundance (concentration: 1mM)	NP40-soluble protein abundance (concentration: 2mM)	NP40-soluble protein abundance (concentration: 4mM)	NP40-soluble protein abundance (concentration: 6mM)	NP40-soluble protein abundance (concentration: 8mM)	NP40-soluble protein abundance (concentration: 10mM)
SEC13 (UniProt P55735)	1.03 ± 0.11	1 ± 0.081	1.01 ± 0.062	0.992 ± 0.057	1.05 ± 0.04	1.02 ± 0.045
UniProt P62380 and related entries	0.849 ± 0.13	0.897 ± 0.14	0.905 ± 0.11	0.735 ± 0.11	0.864 ± 0.097	0.9 ± 0.079
UniProt P58557 and related entries	0.997 ± 0.028	0.981 ± 0.03	1.04 ± 0.015	1.14 ± 0.047	1.05 ± 0.14	0.986 ± 0.15
UniProt P55210 and related entries	0.973 ± 0.028	0.961 ± 0.018	0.938 ± 0.04	0.987 ± 0.031	0.918 ± 0.016	0.935 ± 0.028
UniProt P61019 and related entries	1.04 ± 0.1	1.02 ± 0.073	0.976 ± 0.075	0.986 ± 0.07	0.964 ± 0.068	0.965 ± 0.065
UniProt P68371	1.02 ± 0.024	0.987 ± 0.06	0.908 ± 0.023	1.08 ± 0.069	0.922 ± 0.029	0.951 ± 0.056
UniProt P60604 and related entries	1.03 ± 0.085	1.01 ± 0.1	1.03 ± 0.12	0.96 ± 0.11	1.04 ± 0.11	0.969 ± 0.12
UniProt P61129	0.96 ± 0.14	0.911 ± 0.029	0.85 ± 0.097	0.957 ± 0.057	0.924 ± 0.022	0.844 ± 0.043
NCS1 (UniProt P62166)	1.11 ± 0.047	1.09 ± 0.1	1.17 ± 0.1	1.07 ± 0.062	1.0522 ± 0.00087	1.1 ± 0.035
UniProt P78536 and related entries	0.931 ± 0.093	0.906 ± 0.042	0.92 ± 0.019	0.993 ± 0.057	0.891 ± 0.047	0.9124 ± 0.0024
PLK1 (UniProt P53350)	0.941 ± 0.048	0.947 ± 0.055	0.976 ± 0.11	0.928 ± 0.037	1.05 ± 0.062	1.03 ± 0.023
MAX (UniProt P61244)	0.836 ± 0.13	0.756 ± 0.099	0.741 ± 0.11	0.724 ± 0.091	0.725 ± 0.055	0.644 ± 0.15
UniProt P62899	0.927 ± 0.1	0.947 ± 0.19	0.918 ± 0.2	0.892 ± 0.2	0.741 ± 0.17	1 ± 0.17
UniProt P62330	1.02 ± 0.19	1.04 ± 0.16	1.01 ± 0.084	0.909 ± 0.19	1.07 ± 0.11	1.05 ± 0.11
YBX1 (UniProt P67809)	1.01 ± 0.097	1.01 ± 0.035	0.995 ± 0.051	1.06 ± 0.067	0.977 ± 0.038	0.96 ± 0.025
IGBP1 (UniProt P78318)	1.01 ± 0.095	0.99 ± 0.025	0.999 ± 0.034	1.02 ± 0.073	1.01 ± 0.05	0.927 ± 0.087
PPP1CA (UniProt P62136)	0.967 ± 0.042	0.94 ± 0.052	0.932 ± 0.028	0.978 ± 0.011	0.96 ± 0.049	0.951 ± 0.044
PGGT1B (UniProt P53609)	1.03 ± 0.065	1.07 ± 0.029	1.05 ± 0.17	0.881 ± 0.24	1.02 ± 0.21	1.09 ± 0.12
UniProt P62244 and related entries	0.882 ± 0.054	0.795 ± 0.03	0.704 ± 0.046	0.693 ± 0.047	0.653 ± 0.12	0.688 ± 0.073
P86790 and related entries (UniProt P86791+P86790)	1.02 ± 0.065	1.01 ± 0.038	1.02 ± 0.021	0.974 ± 0.088	1.03 ± 0.033	0.994 ± 0.037

Target	NP40-soluble protein abundance (concentration: 1mM)	NP40-soluble protein abundance (concentration: 2mM)	NP40-soluble protein abundance (concentration: 4mM)	NP40-soluble protein abundance (concentration: 6mM)	NP40-soluble protein abundance (concentration: 8mM)	NP40-soluble protein abundance (concentration: 10mM)
UniProt P62273	0.833 ± 0.1	0.812 ± 0.11	0.75 ± 0.13	0.719 ± 0.15	0.584 ± 0.067	0.716 ± 0.061
UniProt P78563 and related entries	1.04 ± 0.044	1.09 ± 0.051	1.07 ± 0.081	1.08 ± 0.1	1.11 ± 0.11	1.11 ± 0.082
VBP1 (UniProt P61758)	0.899 ± 0.06	0.891 ± 0.013	0.888 ± 0.017	0.931 ± 0.057	0.923 ± 0.027	0.852 ± 0.037
UniProt P61956	0.964 ± 0.13	0.912 ± 0.041	0.9 ± 0.019	0.914 ± 0.07	0.834 ± 0.097	0.819 ± 0.095
UniProt P62701	0.875 ± 0.039	0.806 ± 0.1	0.752 ± 0.12	0.722 ± 0.11	0.641 ± 0.096	0.725 ± 0.11
UniProt P60953 and related entries	0.93 ± 0.076	0.895 ± 0.064	0.915 ± 0.033	0.911 ± 0.054	0.916 ± 0.052	0.893 ± 0.016
EEFSEC (UniProt P57772)	1 ± 0.065	1.01 ± 0.053	1.02 ± 0.025	1.01 ± 0.075	1.03 ± 0.016	1.05 ± 0.038
NAA20 (UniProt P61599)	1.09 ± 0.2	1.08 ± 0.18	1.05 ± 0.24	1.01 ± 0.17	1.11 ± 0.14	1.04 ± 0.12
PCBD1 (UniProt P61457)	0.9532 ± 0.0054	0.896 ± 0.025	0.92 ± 0.022	0.861 ± 0.052	0.879 ± 0.019	0.842 ± 0.037
CTSC (UniProt P53634)	0.991 ± 0.11	0.989 ± 0.078	0.97 ± 0.095	0.976 ± 0.076	0.956 ± 0.059	0.927 ± 0.074
FOXK1 (UniProt P85037)	0.997 ± 0.072	1 ± 0.061	1.01 ± 0.078	1.03 ± 0.093	0.972 ± 0.07	1 ± 0.068
UniProt P61254	0.915 ± 0.18	0.86 ± 0.16	0.803 ± 0.17	0.786 ± 0.17	0.645 ± 0.2	0.842 ± 0.15
COPB1 (UniProt P53618)	1.04 ± 0.1	1.01 ± 0.059	1 ± 0.038	0.935 ± 0.073	1.01 ± 0.019	1.01 ± 0.044
UniProt P82912 and related entries	1.05 ± 0.026	1 ± 0.1	0.962 ± 0.087	0.97 ± 0.15	0.95 ± 0.084	0.939 ± 0.13
RPS27A (UniProt P62979)	0.813 ± 0.14	0.803 ± 0.17	0.747 ± 0.16	0.758 ± 0.19	0.647 ± 0.12	0.767 ± 0.14
LMO4 (UniProt P61968)	0.861 ± 0.02	0.963 ± 0.013	0.924 ± 0.017	0.852 ± 0.059	0.96 ± 0.021	0.976 ± 0.04
UniProt P84090	1.1 ± 0.055	1.18 ± 0.069	1.24 ± 0.059	1.38 ± 0.12	1.35 ± 0.032	1.38 ± 0.14
RPS3A (UniProt P61247)	0.881 ± 0.068	0.819 ± 0.12	0.787 ± 0.12	0.792 ± 0.15	0.698 ± 0.12	0.81 ± 0.1
UniProt P54886 and related entries	0.993 ± 0.066	0.996 ± 0.053	0.978 ± 0.052	0.935 ± 0.073	1 ± 0.035	0.986 ± 0.048
UniProt P62913 and related entries	0.974 ± 0.12	0.925 ± 0.097	0.869 ± 0.092	0.863 ± 0.1	0.746 ± 0.12	0.913 ± 0.082

2 entries picked at random from those above:
Target	NP40-soluble protein abundance (concentration: 1mM)	NP40-soluble protein abundance (concentration: 2mM)	NP40-soluble protein abundance (concentration: 4mM)	NP40-soluble protein abundance (concentration: 6mM)	NP40-soluble protein abundance (concentration: 8mM)	NP40-soluble protein abundance (concentration: 10mM)
COPB1 (UniProt P53618)	1.04 ± 0.1	1.01 ± 0.059	1 ± 0.038	0.935 ± 0.073	1.01 ± 0.019	1.01 ± 0.044
UniProt P62913 and related entries	0.974 ± 0.12	0.925 ± 0.097	0.869 ± 0.092	0.863 ± 0.1	0.746 ± 0.12	0.913 ± 0.082

Following part

Target	NP40-soluble protein abundance (concentration: 1mM)	NP40-soluble protein abundance (concentration: 2mM)	NP40-soluble protein abundance (concentration: 4mM)	NP40-soluble protein abundance (concentration: 6mM)	NP40-soluble protein abundance (concentration: 8mM)	NP40-soluble protein abundance (concentration: 10mM)
UniProt P61221	0.994 ± 0.07	0.971 ± 0.074	0.951 ± 0.053	0.935 ± 0.093	0.999 ± 0.051	0.976 ± 0.064
UniProt P55327-2|P55327-4	0.869 ± 0.2	0.848 ± 0.14	0.845 ± 0.13	0.815 ± 0.17	0.794 ± 0.086	0.781 ± 0.18
UniProt P61289 and related entries	1.1 ± 0.3	0.773 ± 0.33	1.05 ± 0.27	0.727 ± 0.3	0.886 ± 0.02	0.704 ± 0.29
UniProt P62318 and related entries	1.14 ± 0.1	1.14 ± 0.082	1.16 ± 0.097	1.36 ± 0.13	1.34 ± 0.13	1.38 ± 0.11
UniProt P53778 and related entries	0.971 ± 0.086	0.968 ± 0.065	1.01 ± 0.077	0.911 ± 0.11	0.995 ± 0.066	1.04 ± 0.13
UniProt P62487	1.06 ± 0.099	1.09 ± 0.11	1.05 ± 0.14	1.06 ± 0.089	1.04 ± 0.15	1.03 ± 0.098
SLC25A1 (UniProt P53007)	0.974 ± 0.11	0.962 ± 0.021	0.919 ± 0.033	0.87 ± 0.045	1.01 ± 0.092	1.06 ± 0.074
MVD (UniProt P53602)	0.965 ± 0.065	1 ± 0.058	0.955 ± 0.027	0.911 ± 0.068	0.951 ± 0.017	0.945 ± 0.032
UniProt P78347 and related entries	0.977 ± 0.03	0.9556 ± 0.0091	0.949 ± 0.02	0.97 ± 0.016	1.02 ± 0.035	1.03 ± 0.034
UniProt P84095	0.979 ± 0.034	0.96 ± 0.035	0.909 ± 0.03	0.967 ± 0.034	0.92 ± 0.066	0.927 ± 0.037
UniProt P61960	0.925 ± 0.11	0.916 ± 0.066	0.846 ± 0.1	0.925 ± 0.048	0.957 ± 0.038	0.849 ± 0.049
UniProt P56159 and related entries	0.929 ± 0.094	0.95 ± 0.1	0.937 ± 0.034	0.95 ± 0.12	0.929 ± 0.076	0.931 ± 0.1
CD81 (UniProt P60033)	0.958 ± 0.093	0.933 ± 0.079	0.907 ± 0.068	0.887 ± 0.079	0.903 ± 0.091	0.868 ± 0.073
UniProt P78332 and related entries	0.997 ± 0.038	1.04 ± 0.013	1.06 ± 0.036	1.17 ± 0.043	1.14 ± 0.022	1.19 ± 0.014
UniProt P61970	1.001 ± 0.0067	0.992 ± 0.054	0.937 ± 0.045	0.977 ± 0.048	0.938 ± 0.06	0.917 ± 0.062
UniProt P55771	0.83 ± 0.17	0.862 ± 0.15	0.838 ± 0.088	0.916 ± 0.15	0.909 ± 0.17	0.877 ± 0.17
UniProt P56270-2	1.03 ± 0.055	0.995 ± 0.037	1 ± 0.029	1.06 ± 0.025	1.02 ± 0.034	1.01 ± 0.035
HSPA2 (UniProt P54652)	0.978 ± 0.097	0.896 ± 0.064	0.921 ± 0.042	0.958 ± 0.059	0.872 ± 0.066	0.9128 ± 0.0058
UniProt P53990 and related entries	1.07 ± 0.062	1.09 ± 0.055	1.06 ± 0.07	1.09 ± 0.063	1.08 ± 0.076	1.06 ± 0.03
UniProt P61604 and related entries	0.887 ± 0.13	0.857 ± 0.059	0.852 ± 0.042	0.905 ± 0.079	0.832 ± 0.019	0.832 ± 0.044
